Data from the supplement of paper PMC6078165.
Values are relative to the signal before dosing, not to a vehicle control; the signal also falls without drug.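 Cells used are triple-negative breast cancer lines, either basal-like or mesenchymal-like, grown in the absence of fibroblasts. Lower red signal means mitochondrial integrity is lost, a surrogate for apoptosis.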

How the values were obtained:
Experiment in all cases: relative JC-1 red fluorescence (viability) vs pre-drug, monoculture (fraction); higher = more viable cancer cells
Details in all cases: coculture fibroblast: none (monoculture)
MDAMB436 = test system: MDAMB436
Description: (§1)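 JC-1 labelled TNBC cells grown in monoculture (density kept equal with unlabelled cancer cells) in 384-well plates in FluoroBrite medium, treated with one of 42 anticancer drugs at 0.1, 1, 10 or 100 uM. JC-1 red fluorescence (mitochondrial integrity, surrogate of apoptotic death) was read by plate reader every 8 h for 72 h. Values are normalised to each well's pre-drug value, with background from alamethicin. The stock of one drug was tenfold lower, so its dose labels may be too high. Monoculture values are repeated alongside each fibroblast plate and are averaged here.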

BT20 = test system: BT20
Description: as §1

MDAMB468 = test system: MDAMB468
Description: as §1

MDAMB231 = test system: MDAMB231
Description: as §1

N#Cc1ccc(C(c2ccc(C#N)cc2)n2cncn2)cc1 [Letrozole]
relative JC-1 red fluorescence
Details	8 h	16 h	24 h	32 h	40 h	48 h	56 h	64 h	72 h
BT20, 0.1 µM	0.878	0.897	0.815	0.743	0.7	0.665	0.632	0.616	0.596
BT20, 1 µM	0.934	0.847	0.79	0.741	0.716	0.709	0.68	0.665	0.652
BT20, 10 µM	0.964	0.876	0.863	0.808	0.79	0.778	0.759	0.761	0.744
BT20, 100 µM	0.942	0.881	0.813	0.752	0.739	0.724	0.696	0.674	0.657
MDAMB231, 0.1 µM	0.794	0.708	0.757	0.67	0.646	0.662	0.636	0.682	0.686
MDAMB231, 1 µM	0.747	0.726	0.643	0.608	0.551	0.536	0.502	0.519	0.514
MDAMB231, 10 µM	0.81	0.707	0.841	0.722	0.708	0.73	0.723	0.773	0.774
MDAMB231, 100 µM	0.7924	0.7973	0.662	0.713	0.669	0.645	0.609	0.605	0.594
MDAMB436, 0.1 µM	0.875	0.714	0.723	0.681	0.659	0.651	0.655	0.658	0.666
MDAMB436, 1 µM	0.841	0.749	0.741	0.698	0.693	0.69	0.679	0.679	0.684
MDAMB436, 10 µM	0.901	0.819	0.85	0.825	0.83	0.841	0.855	0.857	0.88
MDAMB436, 100 µM	0.884	0.805	0.792	0.738	0.711	0.687	0.667	0.648	0.64
MDAMB468, 0.1 µM	0.9075	0.824	0.7312	0.668	0.627	0.614	0.589	0.5687	0.5594
MDAMB468, 1 µM	0.905	0.8574	0.7982	0.739	0.715	0.705	0.678	0.66	0.661
MDAMB468, 10 µM	0.857	0.7867	0.75	0.6787	0.64	0.625	0.596	0.581	0.566
MDAMB468, 100 µM	0.904	0.866	0.847	0.793	0.777	0.755	0.729	0.699	0.694

CC(=O)O[C@H]1C(=O)[C@@]2(C)[C@H]([C@H](OC(=O)c3ccccc3)[C@]3(O)C[C@H](OC(=O)[C@H](O)[C@@H](NC(=O)c4ccccc4)c4ccccc4)C(C)=C1C3(C)C)[C@]1(OC(C)=O)CO[C@@H]1C[C@@H]2O [Paclitaxel]
relative JC-1 red fluorescence
Details	8 h	16 h	24 h	32 h	40 h	48 h	56 h	64 h	72 h
BT20, 0.1 µM	0.95	0.897	0.796	0.725	0.667	0.647	0.623	0.597	0.586
BT20, 1 µM	0.9507	0.9227	0.8484	0.763	0.709	0.679	0.6484	0.6358	0.626
BT20, 10 µM	0.983	0.916	0.867	0.788	0.757	0.749	0.732	0.732	0.715
MDAMB231, 0.1 µM	0.754	0.687	0.718	0.671	0.641	0.644	0.641	0.682	0.683
MDAMB231, 1 µM	0.823	0.835	0.763	0.791	0.752	0.743	0.722	0.615	0.656
MDAMB231, 10 µM	0.861	0.815	0.799	0.771	0.726	0.709	0.682	0.703	0.698
MDAMB436, 0.1 µM	0.8503	0.791	0.793	0.751	0.78	0.79	0.8	0.808	0.818
MDAMB436, 1 µM	0.876	0.762	0.787	0.739	0.717	0.706	0.699	0.699	0.696
MDAMB436, 10 µM	0.9017	0.84697	0.854	0.802	0.82	0.812	0.813	0.818	0.825
MDAMB468, 0.1 µM	0.9115	0.852	0.745	0.678	0.617	0.575	0.542	0.495	0.468
MDAMB468, 1 µM	0.899	0.837	0.795	0.731	0.684	0.6493	0.6148	0.579	0.582
MDAMB468, 10 µM	0.92	0.877	0.8416	0.79	0.731	0.7108	0.6802	0.6518	0.6348
